From paper doi:10.64898/2025.12.15.694023
Like-named read-outs stand apart in the source and are kept apart here. Results are given in words; binding and its absence hold for the method and conditions named. Binding seen in cells or lysates may run through a third protein. Here binding means that the protein was enriched with, or labelled near, the bait; the list need not be complete. For part of these data: No binding means not detected with the bait.

Amino acid sequences for entries named in this document (tags omitted). Residues count along the entry.
UniProt Q99K10, residues 46-843: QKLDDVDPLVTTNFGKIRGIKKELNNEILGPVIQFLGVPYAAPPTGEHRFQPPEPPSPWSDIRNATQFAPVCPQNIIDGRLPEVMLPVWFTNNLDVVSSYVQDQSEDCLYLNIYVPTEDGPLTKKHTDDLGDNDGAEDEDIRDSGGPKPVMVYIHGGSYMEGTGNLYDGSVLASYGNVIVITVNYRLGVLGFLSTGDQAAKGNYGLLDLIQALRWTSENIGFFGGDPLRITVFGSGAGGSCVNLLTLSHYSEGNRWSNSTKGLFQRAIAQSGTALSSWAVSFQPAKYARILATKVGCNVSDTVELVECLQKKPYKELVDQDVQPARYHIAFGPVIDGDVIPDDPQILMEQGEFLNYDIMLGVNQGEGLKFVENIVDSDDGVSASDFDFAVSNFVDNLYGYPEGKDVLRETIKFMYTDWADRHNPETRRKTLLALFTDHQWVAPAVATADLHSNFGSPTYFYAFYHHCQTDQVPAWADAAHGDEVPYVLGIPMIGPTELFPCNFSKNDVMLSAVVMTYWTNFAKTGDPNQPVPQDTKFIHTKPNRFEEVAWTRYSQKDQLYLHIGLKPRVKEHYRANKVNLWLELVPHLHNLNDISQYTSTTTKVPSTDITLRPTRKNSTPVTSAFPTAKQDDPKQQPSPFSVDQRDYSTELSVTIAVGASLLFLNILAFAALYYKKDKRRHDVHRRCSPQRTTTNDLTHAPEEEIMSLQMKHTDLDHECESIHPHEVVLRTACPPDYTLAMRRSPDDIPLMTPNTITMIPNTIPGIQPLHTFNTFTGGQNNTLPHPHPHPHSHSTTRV
UniProt Q8BYM5, residues 35-825: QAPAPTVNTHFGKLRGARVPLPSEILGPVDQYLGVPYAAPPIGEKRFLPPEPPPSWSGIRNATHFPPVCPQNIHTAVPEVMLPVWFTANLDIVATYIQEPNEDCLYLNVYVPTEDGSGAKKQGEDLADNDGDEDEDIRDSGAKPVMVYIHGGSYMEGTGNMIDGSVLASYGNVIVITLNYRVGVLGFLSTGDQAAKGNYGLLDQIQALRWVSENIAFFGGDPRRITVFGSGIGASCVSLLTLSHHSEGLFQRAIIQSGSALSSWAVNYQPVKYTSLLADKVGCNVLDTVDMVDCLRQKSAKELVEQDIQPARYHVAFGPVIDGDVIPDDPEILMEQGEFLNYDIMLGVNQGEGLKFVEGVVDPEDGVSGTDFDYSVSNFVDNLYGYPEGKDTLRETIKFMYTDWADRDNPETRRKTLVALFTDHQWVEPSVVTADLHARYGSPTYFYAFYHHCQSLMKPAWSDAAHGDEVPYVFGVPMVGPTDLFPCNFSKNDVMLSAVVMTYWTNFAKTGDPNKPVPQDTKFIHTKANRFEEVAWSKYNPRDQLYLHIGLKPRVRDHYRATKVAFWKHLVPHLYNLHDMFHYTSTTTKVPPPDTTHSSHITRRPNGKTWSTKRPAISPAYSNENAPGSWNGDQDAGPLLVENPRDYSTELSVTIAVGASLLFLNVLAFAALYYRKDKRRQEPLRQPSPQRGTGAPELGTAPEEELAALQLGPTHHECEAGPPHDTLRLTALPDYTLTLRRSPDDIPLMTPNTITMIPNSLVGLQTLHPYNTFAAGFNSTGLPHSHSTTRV
UniProt Q69ZK9, residues 15-836: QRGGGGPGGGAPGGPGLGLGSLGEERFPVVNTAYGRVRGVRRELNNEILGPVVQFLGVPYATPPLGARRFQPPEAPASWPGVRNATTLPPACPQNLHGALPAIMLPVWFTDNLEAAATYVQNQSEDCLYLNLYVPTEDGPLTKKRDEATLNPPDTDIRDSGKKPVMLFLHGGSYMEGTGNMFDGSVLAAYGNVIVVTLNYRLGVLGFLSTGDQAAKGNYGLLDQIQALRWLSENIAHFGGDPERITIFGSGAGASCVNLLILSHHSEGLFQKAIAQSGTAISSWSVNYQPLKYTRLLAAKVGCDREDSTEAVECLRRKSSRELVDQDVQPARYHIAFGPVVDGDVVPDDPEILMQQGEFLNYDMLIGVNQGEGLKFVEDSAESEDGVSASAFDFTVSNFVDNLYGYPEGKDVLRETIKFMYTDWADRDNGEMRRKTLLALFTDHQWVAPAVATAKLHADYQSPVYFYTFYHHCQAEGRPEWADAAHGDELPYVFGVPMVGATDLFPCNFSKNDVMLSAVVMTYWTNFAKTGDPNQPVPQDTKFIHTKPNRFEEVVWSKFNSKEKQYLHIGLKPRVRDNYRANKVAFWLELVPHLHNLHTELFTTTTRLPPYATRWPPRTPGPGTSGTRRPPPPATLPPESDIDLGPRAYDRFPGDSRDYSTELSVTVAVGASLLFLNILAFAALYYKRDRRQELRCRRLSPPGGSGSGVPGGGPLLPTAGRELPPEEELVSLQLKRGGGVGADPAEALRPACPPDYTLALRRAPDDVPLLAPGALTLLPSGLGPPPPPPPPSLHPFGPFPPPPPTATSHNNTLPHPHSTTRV
UniProt Q8CFI0: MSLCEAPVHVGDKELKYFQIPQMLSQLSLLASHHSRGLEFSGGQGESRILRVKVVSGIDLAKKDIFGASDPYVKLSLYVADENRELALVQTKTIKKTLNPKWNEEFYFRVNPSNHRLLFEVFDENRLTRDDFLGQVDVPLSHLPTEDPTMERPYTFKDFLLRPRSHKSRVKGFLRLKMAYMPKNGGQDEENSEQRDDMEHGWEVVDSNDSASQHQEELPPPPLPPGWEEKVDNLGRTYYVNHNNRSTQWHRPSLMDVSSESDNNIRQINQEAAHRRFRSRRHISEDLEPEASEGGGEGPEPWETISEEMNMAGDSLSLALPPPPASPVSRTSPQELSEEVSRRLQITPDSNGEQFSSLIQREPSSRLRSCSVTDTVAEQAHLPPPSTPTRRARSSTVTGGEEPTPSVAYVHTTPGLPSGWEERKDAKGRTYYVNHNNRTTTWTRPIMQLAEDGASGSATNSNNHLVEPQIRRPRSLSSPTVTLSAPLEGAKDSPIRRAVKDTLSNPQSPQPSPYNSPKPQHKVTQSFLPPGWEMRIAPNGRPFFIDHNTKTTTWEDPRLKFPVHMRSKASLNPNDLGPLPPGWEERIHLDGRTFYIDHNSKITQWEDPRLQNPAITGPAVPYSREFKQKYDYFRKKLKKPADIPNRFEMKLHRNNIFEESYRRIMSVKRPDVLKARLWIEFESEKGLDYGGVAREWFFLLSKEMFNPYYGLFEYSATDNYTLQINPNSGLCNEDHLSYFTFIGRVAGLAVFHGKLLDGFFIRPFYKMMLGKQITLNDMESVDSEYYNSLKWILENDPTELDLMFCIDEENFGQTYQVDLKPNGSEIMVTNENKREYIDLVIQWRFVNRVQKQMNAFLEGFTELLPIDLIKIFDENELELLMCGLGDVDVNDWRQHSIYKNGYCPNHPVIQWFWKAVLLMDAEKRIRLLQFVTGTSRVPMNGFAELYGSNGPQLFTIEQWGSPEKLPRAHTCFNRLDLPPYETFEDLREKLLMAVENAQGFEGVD

Experiments:
[1] = target: gfaABC1D HA-NL1 Turbo (mouse) (UniProt Q99K10); assay: proximity labelling; in vivo BioID (iBioID): NL-Turbo BirA fusions under the GfaABC1D promoter in astrocytes of mouse cortex (AAV at P0-P1), biotin P18-P20, cortices at P21, Neutravidin beads, LC-MS/MS; enrichment over soluble Turbo BirA in astrocytes
[2] = target: gfaABC1D HA-NL3 Turbo (mouse) (UniProt Q8BYM5); assay: as above
[3] = target: gfaABC1D HA-NL2 Turbo (mouse) (UniProt Q69ZK9); assay: as above
[4] = target: hSyn1 HA-NL2 Turbo (mouse) (UniProt Q69ZK9); assay: proximity labelling; in vivo BioID (iBioID): NL2-Turbo BirA under the hSyn1 promoter in neurons of mouse cortex (AAV at P0-P1), biotin P18-P20, cortices at P21, Neutravidin beads, LC-MS/MS; enrichment over soluble Turbo BirA in neurons
[5] = target: gfaABC1D HA-NL2 Turbo (mouse) (UniProt Q69ZK9); assay: proximity labelling; in vivo BioID (iBioID): NL-Turbo BirA fusions under the GfaABC1D promoter in astrocytes of mouse cortex (AAV at P0-P1), biotin P18-P20, cortices at P21, Neutravidin beads, LC-MS/MS; enrichment over soluble Turbo BirA in astrocytes; remark: listed apart in the source

Molecule	binding [1]	binding [2]	binding [3]	binding [4]	binding [5]
neural precursor cell expressed developmentally downregulated 4-like protein (endogenous, mouse cortex) (from UniProt Q8CFI0 1-1004) (enzyme)	binds	no binding	binds	–	–
Dystrophin (from UniProt P11531 1-3678)	–	–	binds	–	–

Second part, the molecule after the results:

binding [1]	binding [2]	binding [3]	binding [4]	binding [5]	Molecule
–	–	binds	binds	–	NL3 (endogenous, mouse cortex) (from UniProt Q8BYM5 35-825)
–	–	binds	binds	–	NL1 (endogenous, mouse cortex) (from UniProt Q99K10 46-843)
–	–	–	–	binds	growth arrest-specific protein 7 (protein, UniProt Q60780 1-421, biotin (proximity labelling)) MATALQKPGMVPPPPGEESQTVILPPGWHSYLSPQGRRYYVNTTTNETTWERPSSSPGISASPAPHRSSLPTTVNGYHASGTPAHPPETAHMSLRKSTGDSQNLGSSSPGRKQSKENTITINCVTFPHPDTMPEQQLLKPTEWSYCDYFWADKKDPQGNGTVAGFELLLQKQLKGKQMQKEMSEFIRERIKIEEEYAKNLAKLSQNSLAAQEEGSLGEAWAQVKKSLADEAEVHLKFSAKLHSEVEKPLMNFRENFKKDMKKCDHHIADLRKQLASRYASVEKARKALTERQKDLEMKTQQLEIKLSNKTEEDIKKARRKSTQAGDDLMRCVDLYNQAQSKWFEEMVTTTLELERLEVERVEMIRQHLCQYTQLRHETDMFNQSTVEPVDQLLRKVDPAKDRELWVREHKTGNIRPVDMEI
